In patent US20090240037A1 (IMMUNOMEDICS, published 2009):
No constants are given. Whether binding was seen depends on the method and setting. Some results given as binding are weak or reduced against the parent protein; the word gives no strength.

Sequences of proteins named here, by UniProt entry; tags and fusion partners are left off. Residues count along the entry.
UniProt P06731, residues 35-685: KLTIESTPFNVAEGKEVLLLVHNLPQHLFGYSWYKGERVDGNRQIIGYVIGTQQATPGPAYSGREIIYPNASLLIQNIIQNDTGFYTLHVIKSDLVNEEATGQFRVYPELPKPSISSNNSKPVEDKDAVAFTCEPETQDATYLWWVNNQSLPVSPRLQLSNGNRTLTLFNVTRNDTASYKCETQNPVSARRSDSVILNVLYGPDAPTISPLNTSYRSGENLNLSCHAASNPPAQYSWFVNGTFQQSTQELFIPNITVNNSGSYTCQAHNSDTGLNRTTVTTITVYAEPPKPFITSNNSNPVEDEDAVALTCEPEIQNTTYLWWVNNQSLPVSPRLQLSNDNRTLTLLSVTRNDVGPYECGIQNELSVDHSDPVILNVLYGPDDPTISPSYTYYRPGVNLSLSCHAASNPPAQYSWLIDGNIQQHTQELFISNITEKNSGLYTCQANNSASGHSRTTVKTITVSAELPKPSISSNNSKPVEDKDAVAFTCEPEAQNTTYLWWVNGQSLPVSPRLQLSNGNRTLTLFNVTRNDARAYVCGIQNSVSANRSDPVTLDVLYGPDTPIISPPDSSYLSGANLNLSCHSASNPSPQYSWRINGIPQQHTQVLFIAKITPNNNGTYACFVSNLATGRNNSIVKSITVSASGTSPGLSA

Target: soluble CEA (Scripps Laboratories) (UniProt P06731)
Experiment: BIAcore; inferred by the filing from binding of W12 (hMN14-specific anti-idiotype) to chip-bound BS1.5H

B1: BS1.5H (h679 x hMN14 bispecific diabody) (bispecific antibody)
chain 1: MEVQLVESGGDLVKPGGSLKLSCAASGFTFSIYTMSWLRQTPGKGLEWVATLSGDGDDIYYPDSVKGRFTISRDNAKNSLYLQMNSLRAEDTALYYCARVRLGDWDFDVWGQGTTVSVSSGGGGSDIQLTQSPSSLSASVGDRVTITCKASQDVGTSVAWYQQKPGKAPKLLIYWTSTRHTGVPSRFSGSGSGTDFTFTISSLQPEDIATYYCQQYSLYRSFGQGTKVEIKRLEHHHHHH
chain 2: MEVQLVESGGGVVQPGRSLRLSCSASGFDFTTYWMSWVRQAPGKGLEWIGEIHPDSSTINYAPSLKDRFTISRDNAKNTLFLQMDSLRPEDTGVYFCASLYFGFPWFAYWGQGTPVTVSGGGGSDIVMTQSPSSLAVSPGERVTLTCKSSQSLFNSRTRKNYLGWYQQKPGQSPKLLIYWASTRESGVPDRFSGSGSGTDFTLTINSLQAEDVAVYYCTQVYYLCTFGAGTKLELKRLEHHHHHH
binding: binds
